Experimental data from PubChem BioAssay AID743266 (National Center for Advancing Translational Sciences (NCATS), 2014).
The campaign covered roughly 410,000 compounds. About 310 (0.076%) were called active. This list was built around the results that the source calls inconclusive (neither active nor inactive); the mix of calls is not that of the screen. Calls come from the whole dose curve; as a rule, active = well fitted activation curve with a large enough effect; inconclusive = small, poorly fitted or top-dose-only effect, or another doubt; inactive = no such curve, though single readings can be large or run the other way. Where the call is inconclusive, the potency comes from a doubtful curve fit.

Chains of the proteins cited; added tags and fusions are not shown. Lines headed by an entry give the natural chain unless they say otherwise; changes in a name come on top.
UniProt Q03431: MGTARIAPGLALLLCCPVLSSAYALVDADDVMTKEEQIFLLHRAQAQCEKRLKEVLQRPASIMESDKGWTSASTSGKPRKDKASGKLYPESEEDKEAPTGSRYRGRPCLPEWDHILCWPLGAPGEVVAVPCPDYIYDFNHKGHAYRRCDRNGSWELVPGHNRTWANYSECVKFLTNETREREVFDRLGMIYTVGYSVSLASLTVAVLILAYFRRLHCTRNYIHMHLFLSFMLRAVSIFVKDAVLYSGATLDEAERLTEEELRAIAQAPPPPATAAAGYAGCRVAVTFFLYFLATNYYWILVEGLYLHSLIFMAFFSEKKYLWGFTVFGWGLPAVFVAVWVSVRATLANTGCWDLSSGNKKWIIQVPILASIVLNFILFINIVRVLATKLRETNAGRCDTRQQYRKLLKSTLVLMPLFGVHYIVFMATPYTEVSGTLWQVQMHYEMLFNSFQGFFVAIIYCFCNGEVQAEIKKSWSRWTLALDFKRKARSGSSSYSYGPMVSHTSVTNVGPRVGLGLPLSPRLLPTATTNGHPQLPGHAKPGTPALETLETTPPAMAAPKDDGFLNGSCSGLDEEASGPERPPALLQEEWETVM

biological target: Parathyroid hormone/parathyroid hormone-related peptide receptor (Homo sapiens) (UniProt Q03431); experiment: qHTS for PTHR1 Agonists: Primary Screen; conditions: HEK293 GP2 PTHR1 cells, GloSensor cAMP luminescence, 1 h; activation: at 115 µM (top of the series) unless noted; series mostly up to 115 µM; note: nearly all actives have a fitted effect of over 55% in size
In short: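 HEK-293-derived GP2 cells expressing PTHR1 and a GloSensor cAMP reporter, 3,000/well, plated overnight, given luciferin plus IBMX (each 0.5 mM as added) for 1 h at 37 °C, then compound for 1 h at 37 °C. Luminescence was read after 15 min at room temperature.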
Potency is the fitted concentration of half-maximal effect.

Structure (SMILES) | Potency | activation
C=CCn1c(COc2ccc3c(c2)CCCC3)nnc1SCC(=O)Nc1cccc(SC)c1 | inconclusive: 39.8 µM [activator, single point] | –
Cc1cc(SCC(=O)N/N=C/c2ccc(O)cc2O)nc2ccccc12 | inactive | –
Cc1cccc(C)c1NC(=O)COC(=O)COc1ccc2c(C)cc(=O)oc2c1 | inconclusive: 7.94 µM [activator, full curve] | –
CCc1cccc(CC)c1NC(=O)c1ccc(-c2cc(Cl)ccc2Cl)o1 | – | inconclusive: 37.4% [activator]
CC(C)(C)c1ccc(S(=O)(=O)NC(=O)C2(C)CCN2C(=O)Cc2ccc(-c3ccccc3)cc2)cc1 (stereo not drawn) | inactive | –
COc1cccc(CNC(=O)CCN2C(=S)NC(C)(C)CC2C)c1 (stereo not drawn) | inconclusive: 17.8 µM [activator, partial curve] | –
Cn1c(SCc2ccc(Br)cc2)nc2c([nH]c3ccccc32)c1=O | inconclusive: 141 µM [activator, single point] | –
CCOC(=O)c1c(C)[nH]c(/C(C)=N/O)c1C | inconclusive: 39.8 µM [activator, single point] | –
Cc1ccccc1NC(=O)CSc1nc2cc3c(cc2cc1C)CCC3 | inconclusive: 39.8 µM [activator, single point] | –
COc1ccc(NC(=O)CN2CCN(C(C)=O)CC2)cc1S(=O)(=O)N1CCOCC1 | inconclusive: 100 µM [activator, single point] | –
COc1cccc(C(O)c2nc(-c3cccc(C(F)(F)F)c3)cs2)c1 (stereo not drawn) | inactive | –
COc1ccc(CCn2c(-n3nc(C)cc3C)nc3c2c(=O)[nH]c(=O)n3C)cc1 | inconclusive: 141 µM [activator, single point] | –
CCOc1ccc(-n2nc3ccc(NC(=O)c4ccc(-c5cccc(Cl)c5)o4)cc3n2)cc1 | inactive | –
O=C(Nc1ccc2c(c1)OCO2)NC1CCN(Cc2ccccc2)CC1 | – | inconclusive: 181% [activator] [at 57.5 µM]
CCCC1=Nc2cc(C(=O)N3CCC(C)CC3)ccc2Sc2ccc(C)cc21 | inconclusive: 112 µM [activator, single point] | –
COc1ccc(C)c(-n2c(=O)n(Cc3ccccc3)c(=O)c3[nH]cnc32)c1 | inactive | –
CCN(CC(=O)NC1CCS(=O)(=O)C1)S(=O)(=O)c1ccc(Br)cc1 (stereo not drawn) | inconclusive: 79.4 µM [activator, single point] | –
Cc1cc(C)cc(C(=O)NCCC(=O)N2CCC3(CC2)NCCc2[nH]cnc23)c1 | – | inconclusive: 63.2% [activator]
CCn1c(SC(C)C(=O)NC2CCCc3ccccc32)nnc1-c1cccs1 (stereo not drawn) | inconclusive: 3.98 µM [activator, partial curve, poor fit] | –
CSc1ncccc1C(=O)NCc1nnc2ccccn12 | inconclusive: 50.1 µM [activator, partial curve, poor fit] | –
Fc1ccc(-[n+]2nc(Nc3ccccc3)sc2-c2c3ccccc3cc3ccccc23)cc1 | inactive | –
COC(=O)c1cc(C#N)c(NCc2ccccc2)nc1C | inconclusive: 89.1 µM [activator, single point] | –
CCn1cc(S(=O)(=O)c2cccc(C)c2)c(=O)c2cc(F)c(N3CCN(c4ccccc4)CC3)cc21 | inactive | –

Structure (SMILES) | Potency | activation
O=C(NC(=O)N1CCCc2ccccc21)c1ccccc1 | inactive | –
O=C1c2ccccc2C2=Nc3ccccc3SC(c3ccccc3F)C12 (stereo not drawn) | – | inconclusive: 36.6% [activator]
Cc1cc(Nc2ncc(Cl)cc2Cl)n(-c2ccccn2)n1 | inconclusive: 50.1 µM [activator, single point] | –
CN(C(=O)CSc1nc2ccc(NC(=O)COc3ccccc3)cc2s1)c1ccccc1 | – | inconclusive: -93.6% [activator]
N#Cc1ccc(OCCN2CCc3ccccc3C2)cc1 | – | inconclusive: -84.1% [activator]
CC1CC(C)CN(CCCNC(=O)c2cc3c(s2)-c2ccccc2OC3)C1 (stereo not drawn) | inconclusive: 126 µM [activator, single point] | –
COCC(C)NC(=O)C1CC(c2cccc(Br)c2)=NO1 (stereo not drawn) | – | inconclusive: 36.4% [activator]
Cn1c(CCNC(=O)OC(C)(C)C)n[nH]c1=S | inconclusive: 2.82 µM [activator, full curve, poor fit] | –
C#CCOCCOCCOCCNc1nc(N2CCN(C(=O)CCCCCCCCCCNC(=O)[C@H](CCC(=O)O)n3cc(CCCCCN)nn3)CC2)nc(N2CCN(C(=O)CCCCCCCCCCNC(=O)[C@@H]([C@H](C)O)n3cc(C)nn3)CC2)n1 | inconclusive: 70.8 µM [activator, partial curve, poor fit] | –
CCOc1ccc(N(C)S(=O)(=O)c2c[nH]c(C(=O)OC)c2)cc1 | inactive | –
CCCC(C)NC(=O)C1c2ccccc2Oc2ccccc21 (stereo not drawn) | inconclusive: 20 µM [activator, partial curve, poor fit] | –
Cn1c(-n2cccc2)c(-c2c(-c3ccccc3)[nH]c3c2c(=O)[nH]c(=O)n3C)c(=O)[nH]c1=O | inconclusive: 50.1 µM [activator, partial curve, poor fit] | –
Cc1ccc2c(c1)N(CC(=O)NCCc1ccc(Cl)cc1)C(=O)c1cccnc1O2 | inconclusive: 112 µM [activator, single point] | –
COc1ccc(C/C(C)=N/NC(=O)C2COc3ccccc3O2)cc1 (stereo not drawn) | inconclusive: 50.1 µM [activator, partial curve, poor fit] | –
CCC1CCCCN1C(=O)C1CC(c2cc(Cl)c(OC)cc2OC)=NO1 (stereo not drawn) | inconclusive: 35.5 µM [activator, single point] | –
COc1ccc(N2CCN(C(=S)Nc3ccc(C)cc3C)CC2)cc1 | inconclusive: 12.6 µM [activator, partial curve, poor fit] | –
CCc1ccc(NC(=O)c2ccccc2NC(=O)C2CCCO2)cc1 (stereo not drawn) | inconclusive: 11.2 µM [activator, partial curve, poor fit] | –
CC(CC(=O)OCC(=O)NC1CCS(=O)(=O)C1)c1ccccc1 (stereo not drawn) | – | inconclusive: 47.7% [activator]
Cc1cc(C)n(-c2nc3ccccc3c(=O)n2OCc2ccc(F)cc2)n1 | inactive | –
CC(=O)c1ccc(N2CCN(C(=O)C3(S(=O)(=O)c4ccc(Cl)cc4)CC3)CC2)cc1 | inconclusive: 56.2 µM [activator, single point] | –
COc1ccc(-c2cc(C)no2)cc1S(=O)(=O)NCc1cccs1 | inconclusive: 2.51 µM [activator, partial curve, poor fit] | –
CCN(CC)CCCN(Cc1cc2cc3c(cc2[nH]c1=O)OCO3)C(=S)Nc1ccc(OC)cc1 | – | inconclusive: 37.7% [activator]
Cc1ccn(C(=O)c2cc3c(C)nn(-c4ccccc4)c3s2)n1 | inactive | –

In the list so far, these contain a furan ring, fused or not.
Structure (SMILES) | Potency | activation
CCc1cccc(CC)c1NC(=O)c1ccc(-c2cc(Cl)ccc2Cl)o1 | – | inconclusive: 37.4% [activator]
CCOc1ccc(-n2nc3ccc(NC(=O)c4ccc(-c5cccc(Cl)c5)o4)cc3n2)cc1 | inactive | –

Next structures.

Structure (SMILES) | Potency | activation
O=C(CCC(=O)N1CCOc2ccc(Cl)cc21)NCCN1CCOCC1 | inactive | –
COCc1cc(C)n(CC(=O)NC(C)c2ccccc2)c(=O)c1C#N (stereo not drawn) | inconclusive: 39.8 µM [activator, single point] | –
CN1CCN(c2nc3c(S(=O)(=O)c4ccccc4)nnn3c3ccsc23)CC1 | inconclusive: 141 µM [activator, single point] | –
O=C(Nc1ncccn1)c1ccc(Cl)c([N+](=O)[O-])c1 | active: 50.1 µM | –
COc1ccc(-c2cc(C(=O)OCC(=O)c3cccc([N+](=O)[O-])c3)c3cc(C)ccc3n2)cc1 | inactive | –
COc1ccc(S(=O)(=O)Nc2ccc3c(c2)n(C)c(=O)n3C)cc1OC | inconclusive: 12.6 µM [activator, partial curve] | –
COc1ccc(OC)c(NC(=O)CN2C(=O)CCc3cc(S(=O)(=O)N4CCCCC4)ccc32)c1 | – | inconclusive: -39.8% [activator]
CC(Oc1ccccc1)C(=O)NCc1cccnc1 (stereo not drawn) | inconclusive: 4.47 µM [activator, full curve, poor fit] | –
CCCN(CCC)CCNC(=O)c1ccc2c(c1)NC(=O)C(CS(=O)(=O)Cc1cccc(Br)c1)N2 (stereo not drawn) | inconclusive: 44.7 µM [activator, partial curve, poor fit] | –
Cc1cc(C)nc(NC(=O)/C=C/c2ccccc2Cl)c1 | inactive | –
Cc1ccc(Nc2nc(-c3ccccc3)cs2)nc1 | inactive | –
O=C(c1ccco1)N(CC1CCCO1)c1nc(-c2ccccc2)cs1 (stereo not drawn) | inconclusive: 56.2 µM [activator, single point] | –
Cc1nc2c(-c3ccc(Cl)cc3)cnn2c(N)c1-c1ccc(F)cc1 | inactive | –
Cc1cccc(C(=O)Nc2c(C(=O)NCc3ccc(Cl)cc3)sc3nc(C)cc(C)c23)c1 | inconclusive: 22.4 µM [activator, partial curve, poor fit] | –
COc1ccc(Cl)cc1S(=O)(=O)n1nnc2ccccc21 | inactive | –
O=C(NCc1ccccc1)c1nc(S(=O)(=O)Cc2ccccc2)ncc1Cl | inactive | –
Cc1cc(C)cc(Cn2cc(CN3CC(N4CCN(CCN(C)C)CC4)CS3(=O)=O)nn2)c1 (stereo not drawn) | inactive | –
CCOc1ccc(NC(=O)Cn2c(=O)c(CNc3ccc(CC)cc3)cc3cc4c(cc32)OCO4)cc1 | inactive | –
CC(Sc1nnc(-c2ccco2)n1N)C(=O)NC1CCCCC1C (stereo not drawn) | inconclusive: 112 µM [activator, single point] | –
O=C(O)CN1C(=O)/C(=C\c2cc(Br)ccc2OCc2ccc([N+](=O)[O-])cc2)SC1=S | – | inconclusive: 82.8% [activator]
COCCN(CCOC)Cc1c(C)[nH]c2c(C)c(C)ccc2c1=O | – | inconclusive: 31% [activator] [at 57.5 µM]
CCCOc1ccc(C2CC(=O)Nc3c2c(C)nn3-c2nncc(-c3cccc(OC)c3)n2)cc1OC (stereo not drawn) | inconclusive: 7.08 µM [activator, full curve, poor fit] | –

Whole records, quoted from the list. Order of values: Potency | activation
Cc1ccc(Nc2nc(-c3ccccc3)cs2)nc1 is listed with inactive | –
COCCN(CCOC)Cc1c(C)[nH]c2c(C)c(C)ccc2c1=O is listed with – | inconclusive: 31% [activator] [at 57.5 µM]
